From PubChem BioAssay AID590 (National Center for Advancing Translational Sciences (NCATS), 2007)
The campaign covered roughly 59,000 compounds. About 6,500 (11%) were called active. Inconclusive means that the source gave no clear call. Such entries were picked first, then a sample of the others. Cut-off read from the data, not from the text of the source: active = max dye-equivalent concentration above about 10 nM; inconclusive = mostly about 1.1 nM to 9.6 nM; inactive = weaker than that.

Experiment: qHTS Assay for Spectroscopic Profiling in A350 Spectral Region
Conditions: Compound autofluorescence, 340/450 nm, Alexa 350 dye-equivalents; stronger effect = higher value

Row | Compound | max dye-equivalent concentration
1 | Cc1cc(C)n2cc(CSC3=NCCS3)nc2n1 | active: 33 nM
2 | Cc1ccc(S(=O)(=O)NC(=O)Nc2ccc(Cl)cn2)cc1 | active: 14 nM
3 | Cc1nc2ncnn2c(Nc2ccc3c(c2)OCCO3)c1C | inconclusive: 3.4 nM
4 | CN(C(=O)CCCOc1ccc2[nH]c(=O)ccc2c1)C1CCCCC1 | active: 80 nM
5 | COc1ccccc1C(c1nnnn1C(C)(C)C)N1CCN(C(=O)c2ccco2)CC1 (centres undefined) | inconclusive: 1.3 nM
6 | COc1ccc(-c2cc(C(F)(F)F)nc(N3CCN(c4ccccc4)CC3)n2)cc1OC | inconclusive: 2 nM
7 | O=C(Cc1ccccc1)Nc1ccc2oc(-c3cccnc3)nc2c1 | inconclusive: 4.7 nM
8 | CCOCCCNC(=O)c1ccc2c(c1)OCO2 | inconclusive: 7.3 nM
9 | CCOC(=O)N1CCN(c2nc(-c3ccco3)cc(C(F)(F)F)n2)CC1 | inconclusive: 5 nM
10 | COc1cccc(-c2cncnc2NCc2cccnc2)c1 | inactive
11 | CC(OC(=O)c1nsc(Cl)c1Cl)C(=O)NCc1cccs1 (centres undefined) | inconclusive: 1.9 nM
12 | c1ccc(-c2oc3ncnc(NCCCn4ccnc4)c3c2-c2ccccc2)cc1 | inconclusive: 4 nM
13 | Cc1csc(NC(=O)CSc2nnc(C)n2Cc2ccco2)n1 | inconclusive: 1.1 nM
14 | CC1(C)Cc2c(c(N3CCOCC3)nc3sc(C#N)c(N)c23)CS1 | active: 210 nM
15 | OCc1cc([C@@H](O)CNCCCCCCOCCCCc2ccccc2)ccc1O | inactive
16 | CN1CC[C@@]2(CCCN(C(=O)c3cccn3C)C2)C1 | inactive
17 | CC(C)(C)NC(=O)Cn1cc(C#N)c2cc(Br)ccc21 | inactive
18 | Cc1nn(-c2ccccc2)c2c1C1(C(=O)N(C)c3ccccc31)C(C#N)=C(N)O2 (centres undefined) | inconclusive: 5.6 nM
19 | CN(C)c1ncc2nc(-c3cn(C)c4ccccc34)c(=O)n(C[C@H]3CCCO3)c2n1 | inactive
20 | CCC(=O)Nc1cc(-c2nn(C)c(=O)c3ccccc23)ccc1N1CCCCC1 | inconclusive: 5.5 nM
21 | c1cc2c(cc1Nc1nc(-c3ccc4c(c3)OCO4)cs1)OCCO2 | inactive
22 | COc1ccc(C)cc1NC(=O)CCN1CCCC1 | inactive
23 | COc1ccc(C(=O)NC2=C(C#N)CCC2)cc1OC | inconclusive: 1.5 nM

Row | Compound | max dye-equivalent concentration
24 | CCN(CC)C(=O)Oc1ccc2c(=O)c(-c3ccccc3)coc2c1 | inconclusive: 4.8 nM
25 | CCS(=O)(=O)Nc1ccc(C(=O)CC2(O)C(=O)Nc3ccc(Br)cc32)cc1 (centres undefined) | inconclusive: 3.1 nM
26 | Cc1ccc(NC(=O)N(Cc2ccc3c(c2)OCO3)Cc2cc3cc4c(cc3[nH]c2=O)OCCO4)cc1 | active: 37 nM
27 | CCCOc1ccc(C2C(C(=O)c3ccco3)=C(O)C(=O)N2CCCn2ccnc2)cc1 (centres undefined) | inactive
28 | CC(=O)Nc1c(O)nc(SCC(=O)Nc2ccc(C(C)=O)cc2)[nH]c1=O | inconclusive: 1.7 nM
29 | CCOc1ccc(C(=O)N2CCN(C(=O)c3ccco3)CC2)cc1OCC | inconclusive: 1.6 nM
30 | CS(=O)(=O)N(CCc1ccccc1)CC(=O)NCc1ccco1 | inactive
31 | Cc1ccc(-n2c(SCC(=O)N3CCOCC3)nnc2-c2cccnc2)cc1 | inconclusive: 1.3 nM
32 | CC(=O)c1ccc(N2CCN(C(=O)c3ccco3)C(C)C2)c(F)c1 (centres undefined) | inconclusive: 2.1 nM
33 | CN1C(=O)N(C)C2(c3ccccc3)N(C)C(=O)NC12c1ccccc1 (centres undefined) | inactive
34 | CC12CCC(C(=O)NCc3ccc4c(c3)OCO4)(CC1=O)C2(C)C (centres undefined) | inconclusive: 1.5 nM
35 | CCS(=O)(=O)N1CCC(C(=O)NCCCN2CCN(c3ccccc3F)CC2)CC1 | inconclusive: 1.4 nM
36 | N=C(N)SCc1ccc(Cl)cc1Cl (tested in a mixture with another compound) | inconclusive: 1.5 nM
37 | OC(COc1ccc2c(c1)CCC2)CN1CCN(c2ccccc2F)CC1 (centres undefined) | inactive
38 | CC1(C)O[C@@H]2C[C@H]3[C@@H]4C[C@H](F)C5=CC(=O)CC[C@]5(C)[C@H]4[C@@H](O)C[C@]3(C)[C@]2(C(=O)CO)O1 | inconclusive: 4.1 nM
39 | Cc1cc(C(F)F)n2nc(C(=O)Nc3cccc(C(F)(F)F)c3)nc2n1 | inconclusive: 2.3 nM
40 | N=c1ccn2c(n1)O[C@@H]1[C@@H](O)[C@H](CO)O[C@H]12 | inactive
41 | CCCOc1ccccc1Cn1c(=O)oc2ccc(C)cc21 | inconclusive: 1.5 nM
42 | Cc1cc(NC(=O)c2cnn3cccnc23)no1 | inconclusive: 3.3 nM
43 | Cc1nn(Cc2ccccc2)c(C)c1NC(=O)c1cc(-c2ccc3c(c2)OCO3)on1 | inconclusive: 6 nM
44 | Cc1cc(C)n(-c2nc3c(c(=O)[nH]c(=O)n3C)n2CC(O)COc2ccccc2C)n1 (centres undefined) | inactive
45 | CNC(=O)NC(=O)CSc1nc2cc(C(=O)OC)ccc2c(=O)n1-c1ccccc1 | inconclusive: 4.7 nM
46 | CCCCc1c(C)nn(-c2nnc3c4ccccc4n(C)c3n2)c1C | inconclusive: 1.1 nM

Row | Compound | max dye-equivalent concentration
47 | c1ccc(-c2nc3ccccc3s2)nc1 | inconclusive: 2.7 nM
48 | CCc1ccc2oc(=O)cc(CN3CCCCC3C)c2c1 (centres undefined) | inconclusive: 3.7 nM
49 | c1cncc(CNc2ccnc(-c3cccnc3)n2)c1 | inactive
50 | COCCCN1C(=O)c2ccc(C(=O)NCc3ccco3)cc2C1=O | active: 20 nM
51 | CC1CCN(c2ncccc2C(=O)O)CC1 | inconclusive: 5.3 nM
52 | Nc1ccc(Cl)c(NC(=O)c2cccs2)c1 | inconclusive: 1.4 nM
53 | COCC(=O)N1CCC2(CC1)CN(c1cccc(-c3ccccc3)c1)C2 | inactive
54 | Cn1c(=O)c(-c2cc(F)cc(F)c2)nc2cncnc21 | inconclusive: 2.5 nM
55 | COc1ccc2c(Cl)c(-c3nnc4n3CCCCC4)sc2c1 | inconclusive: 1.1 nM
56 | Nc1nc2ccccc2n1/N=C/c1ccc(-c2ccccc2)o1 | active: 11 nM
57 | CCCCn1nc(NC(=O)c2cccs2)c2cc3cc(OC)ccc3nc21 | inconclusive: 9.5 nM
58 | O=C(CN1CCOCC1)Nc1ccccc1NC(=O)C1CCN(c2ncccn2)CC1 | inconclusive: 3.2 nM
59 | O=C(O)c1cc(-c2ccc3c(c2)OCO3)nc2ccccc12 | inconclusive: 2.2 nM
60 | COC(=O)c1cccc(NC(=O)CSc2nc(C)cc(=O)[nH]2)c1 | inconclusive: 1.7 nM
61 | O=c1c2ccccc2nnn1Cc1nnc(-c2ccccc2Br)o1 | inactive
62 | Cc1ccc2cc(CN(CCN3CCOCC3)C(=O)NCc3ccccc3)c(=O)[nH]c2c1C | inconclusive: 1.9 nM
63 | O=C(Nc1nnc(COc2ccc(Cl)cc2)s1)C1CCCO1 (centres undefined) | inconclusive: 7.7 nM
64 | O=C(O)c1cccnc1 | inconclusive: 1.1 nM
65 | CC(=O)c1c(N2CCN(Cc3ccc4c(c3)OCO4)CC2)nc(=S)n(-c2ccccc2)c1C | active: 20 nM
66 | CCOc1ccccc1Oc1coc2cc(OC(=O)c3ccco3)ccc2c1=O | inconclusive: 3 nM
67 | O=C(O)CCCC(=O)N1CC(=O)Nc2ccccc21 | inconclusive: 2.2 nM
68 | CCOC(=O)c1cnn2c(C(F)F)cc(C3CC3)nc12 | active: 19 nM
69 | COc1ccc(OC)c(C(=O)Cn2nnc3ccccc3c2=O)c1 | inconclusive: 3.4 nM

Row | Compound | max dye-equivalent concentration
70 | CC(=O)N/C(=N/c1nc(C)cc(C)n1)Nc1ccc(NC(C)=O)cc1 | inconclusive: 8.1 nM
71 | CCOC(=O)C1=C(C)N=C2SCCC(=O)N2C1c1sccc1C (centres undefined) | inconclusive: 1.4 nM
72 | CCCn1c(=NC(C)=O)c(C(=O)OCC)cc2c(=O)n3ccccc3nc21 | active: 4900 nM
73 | NC(=O)c1oc2ccccc2c1NC(=O)c1nc2ccccc2s1 | active: 42 nM
74 | CC(C)CCn1cnc2c(cnn2-c2ccc(F)cc2)c1=O | inactive
75 | Cc1nc(COC(=O)c2ccc(CO)cc2)cs1 | active: 39 nM
76 | CCSc1nc2c(c(=O)[nH]1)C(c1ccncc1)C(C(=O)OC(C)C)=C(C)N2 (centres undefined) | inconclusive: 6.9 nM
77 | COc1ccccc1C(=O)Nc1ccc(S(=O)(=O)Nc2cc(C)on2)cc1 | inconclusive: 3.4 nM
78 | O=C(CCCSc1nc2sc3c(c2c(=O)[nH]1)CCC3)NCCO | active: 20 nM
79 | Cc1ccc2[nH]c(=O)c(CN(Cc3ccco3)S(=O)(=O)c3c(C)ccc4nsnc34)cc2c1 | active: 17 nM
80 | O=C(C1CCN(S(=O)(=O)c2cccnc2)CC1)N1CCN(c2ccccc2Cl)CC1 | inconclusive: 2.9 nM
81 | Cc1c(N(C(=O)Nc2ccccc2)C2=NCC(C)S2)c(=O)n(-c2ccccc2)n1C (centres undefined) | inconclusive: 1.1 nM
82 | CCOC(=O)c1cc2c(=O)n3cccc(C)c3nc2n(C)c1=N | active: 7400 nM
83 | CC(C)C(OC(=O)c1ccco1)C(=O)NCc1cccs1 (centres undefined) | active: 140 nM
84 | Nc1ccc(S(=O)(=O)NCCS(=O)(=O)O)cc1 | inactive
85 | COc1ccc2nc3oc(C(=O)N4CCN(c5cccc(Cl)c5)CC4)cc3cc2c1 | inconclusive: 5.8 nM
86 | CC1CCc2cc(F)ccc2N1C(=O)CSc1nnc(-c2cccs2)n1C (centres undefined) | inconclusive: 1.1 nM
87 | CCCCc1c(O)nc(SCC(=O)N2CCCCC2)n(-c2ccccc2C)c1=O | inconclusive: 1.5 nM
88 | CC(C)(C)C(=O)NC(=C(Cl)Cl)P(=O)(O)O | inconclusive: 6.6 nM
89 | COc1ccc(OC)c(-c2cc(C(=O)N3CCc4ccccc4C3)no2)c1 | inconclusive: 5.2 nM

Sorted by molar mass (high to low): some entries from above.
Row | Compound | max dye-equivalent concentration
79 | Cc1ccc2[nH]c(=O)c(CN(Cc3ccco3)S(=O)(=O)c3c(C)ccc4nsnc34)cc2c1 | active: 17 nM
25 | CCS(=O)(=O)Nc1ccc(C(=O)CC2(O)C(=O)Nc3ccc(Br)cc32)cc1 (centres undefined) | inconclusive: 3.1 nM
62 | Cc1ccc2cc(CN(CCN3CCOCC3)C(=O)NCc3ccccc3)c(=O)[nH]c2c1C | inconclusive: 1.9 nM
81 | Cc1c(N(C(=O)Nc2ccccc2)C2=NCC(C)S2)c(=O)n(-c2ccccc2)n1C (centres undefined) | inconclusive: 1.1 nM
12 | c1ccc(-c2oc3ncnc(NCCCn4ccnc4)c3c2-c2ccccc2)cc1 | inconclusive: 4 nM
20 | CCC(=O)Nc1cc(-c2nn(C)c(=O)c3ccccc23)ccc1N1CCCCC1 | inconclusive: 5.5 nM
77 | COc1ccccc1C(=O)Nc1ccc(S(=O)(=O)Nc2cc(C)on2)cc1 | inconclusive: 3.4 nM
76 | CCSc1nc2c(c(=O)[nH]1)C(c1ccncc1)C(C(=O)OC(C)C)=C(C)N2 (centres undefined) | inconclusive: 6.9 nM
29 | CCOc1ccc(C(=O)N2CCN(C(=O)c3ccco3)CC2)cc1OCC | inconclusive: 1.6 nM
72 | CCCn1c(=NC(C)=O)c(C(=O)OCC)cc2c(=O)n3ccccc3nc21 | active: 4900 nM
4 | CN(C(=O)CCCOc1ccc2[nH]c(=O)ccc2c1)C1CCCCC1 | active: 80 nM
70 | CC(=O)N/C(=N/c1nc(C)cc(C)n1)Nc1ccc(NC(C)=O)cc1 | inconclusive: 8.1 nM
73 | NC(=O)c1oc2ccccc2c1NC(=O)c1nc2ccccc2s1 | active: 42 nM
55 | COc1ccc2c(Cl)c(-c3nnc4n3CCCCC4)sc2c1 | inconclusive: 1.1 nM
7 | O=C(Cc1ccccc1)Nc1ccc2oc(-c3cccnc3)nc2c1 | inconclusive: 4.7 nM
2 | Cc1ccc(S(=O)(=O)NC(=O)Nc2ccc(Cl)cn2)cc1 | active: 14 nM
82 | CCOC(=O)c1cc2c(=O)n3cccc(C)c3nc2n(C)c1=N | active: 7400 nM
83 | CC(C)C(OC(=O)c1ccco1)C(=O)NCc1cccs1 (centres undefined) | active: 140 nM
74 | CC(C)CCn1cnc2c(cnn2-c2ccc(F)cc2)c1=O | inactive
10 | COc1cccc(-c2cncnc2NCc2cccnc2)c1 | inactive
68 | CCOC(=O)c1cnn2c(C(F)F)cc(C3CC3)nc12 | active: 19 nM
1 | Cc1cc(C)n2cc(CSC3=NCCS3)nc2n1 | active: 33 nM
54 | Cn1c(=O)c(-c2cc(F)cc(F)c2)nc2cncnc21 | inconclusive: 2.5 nM
75 | Cc1nc(COC(=O)c2ccc(CO)cc2)cs1 | active: 39 nM
16 | CN1CC[C@@]2(CCCN(C(=O)c3cccn3C)C2)C1 | inactive
51 | CC1CCN(c2ncccc2C(=O)O)CC1 | inconclusive: 5.3 nM
